Measured values from PMC9512787.
No constants are given. Whether binding was seen depends on the method and setting. Binding calls can cover weak binding; strength is not graded here. For some of these results: Where a sequence is shown, tags or fusion partners need not be part of it. Values belong to the molecule of their own block, whether it stands above or below them.

Columns and labels:
2xFLAG-HAUS3 (X. laevis) [1] = target: T1, 2xFLAG-HAUS3 (X. laevis) (UniProt Q6DCY9); experiment: cryo-EM structure; purified augmin TIII tetramer, single particle analysis, 7.7 Å global resolution; AlphaFold-Multimer model fitted by MDFF; both purified
T1 sequence: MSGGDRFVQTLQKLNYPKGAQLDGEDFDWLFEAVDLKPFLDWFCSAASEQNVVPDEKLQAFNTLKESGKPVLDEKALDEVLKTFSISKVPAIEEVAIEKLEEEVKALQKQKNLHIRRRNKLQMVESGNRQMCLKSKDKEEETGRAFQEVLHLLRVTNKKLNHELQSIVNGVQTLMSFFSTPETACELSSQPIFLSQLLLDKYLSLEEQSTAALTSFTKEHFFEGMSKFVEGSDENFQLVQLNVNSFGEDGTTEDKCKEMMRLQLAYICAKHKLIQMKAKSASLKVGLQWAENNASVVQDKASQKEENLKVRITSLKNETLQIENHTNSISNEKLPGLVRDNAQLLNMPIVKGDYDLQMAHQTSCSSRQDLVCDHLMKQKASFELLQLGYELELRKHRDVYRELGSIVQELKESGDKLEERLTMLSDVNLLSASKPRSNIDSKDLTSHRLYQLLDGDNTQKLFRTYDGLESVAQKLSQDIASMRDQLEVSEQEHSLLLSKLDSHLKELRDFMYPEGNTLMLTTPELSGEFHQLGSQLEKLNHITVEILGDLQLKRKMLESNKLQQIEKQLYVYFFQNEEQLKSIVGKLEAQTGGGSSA

2xFLAG-HAUS6 (X. laevis) = 2xFLAG-HAUS6 (X. laevis) (UniProt A0JPI0); experiment: negative stain EM 3D reconstruction; augmin octamer from co-expression of all eight subunits, anti-FLAG elution and SEC (Superose 6 increase); predicted models docked as rigid bodies; both purified
2xFLAG-HAUS3 (X. laevis) [2] = target: T1, 2xFLAG-HAUS3 (X. laevis); experiment: cross-linking; 50 µg AEC-purified TIII tetramer, 0.1 mM BS3, 15 min, RT; mass spectrometry; 190 highest-scoring crosslinks mapped on the model; both purified

binding (2xFLAG-HAUS3 (X. laevis) [1]): binds
Molecule: HAUS1-EGFP-HIS8 (X. laevis)

binding (2xFLAG-HAUS6 (X. laevis)): binds
Molecule: HAUS2 (from UniProt Q6INL9)

binding (2xFLAG-HAUS3 (X. laevis) [1]): binds
Molecule: HAUS4 (from UniProt Q4V7I1)

binding (2xFLAG-HAUS3 (X. laevis) [1]): binds | binding (2xFLAG-HAUS3 (X. laevis) [2]): binds
Molecule: HAUS5 (X. laevis)

binding (2xFLAG-HAUS6 (X. laevis)): binds
Molecule: HAUS7 (from UniProt B1H1T5)

binding (2xFLAG-HAUS6 (X. laevis)): binds
B1: HAUS8 (protein, UniProt Q0IHJ3 1-367)
chain: MSEAGVAPIEDGSQNSSGGSSGDAALKKSKGGAKVVKSRYMQIGRSKVSKNSLANTTVCSGGKVPERGSGGTPTRRSLAPHKAKITAAVPLPALDGSIFTKEDLQSTLLDGHRIARPDLDLSVINDRTLQKITPRPVVTSEQKKPKRDTTPVNLVPEDMVEMIESQTLLLTYLTIKMQKNLFRLEEKAERNLLLVNDQKDQLQETIHMMKRDLTLLQREERLRDLIEKQDEVLTPVVTSKDPFKDNYTTFATALDSTRHQLAIKNIHITGNRHRYLEELQKHLAITKSLLEEIMPSHASENAESFDTIKDLENIVLKTDEELARSFRQILDLSFKVNKEISLQSQKAVEETCESALVRQWYFDGSLP
